# Results reported in PubChem BioAssay AID1487 (National Center for Advancing Translational Sciences (NCATS), 2009).
# The list shows a part of the results. Further columns of the screen follow, without active or inactive calls. Most of these compounds were active or inconclusive in the main read-out, so they are no random draw. Potencies come from curve fits of mixed quality, noted in brackets.
# Assay: qHTS Assay for Modulators of Lamin A Splicing
# Settings: HeLa LMNA splicing GFP/RFP minigene ratio, 48 h
# Summary of the method: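 S3 HeLa cells stably expressing lamin A-EGFP splicing minigene plus DsRed2, 600 cells/well, 48 h compound exposure at 37C. Laser-scanning cytometry; analysed as GFP (500-530 nm)/RFP (575-640 nm) total intensity ratio; 0.5% DMSO vehicle.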
# [1] = measured here: GFP splicing reporter channel
# [2] = measured here: RFP viability control channel
SMILES,AC50 [1],AC50 [2]
CCOC(=O)c1c(NC(=O)CSc2nnc(C)s2)sc2c1CCC(C)C2 (stereo unspecified),"22.4 µM [rising, single point]","25.1 µM [rising, single point]"
COc1ccc(/C=C/C(=O)c2ccc3c4c(cccc24)CC3)cc1,"35.5 µM [falling, single point]",–
CC/C(=N/Nc1ccccc1C)c1cnnc(SC)n1,"35.5 µM [rising, single point]",–
O=c1c(/C=N/N2CCOCC2)c(C(F)(F)F)[nH]n1-c1ccccc1,–,"0.316 µM [falling, partial curve]"
Cc1onc(-c2c(F)cccc2Cl)c1C(=O)N1CCN(c2ncccn2)CC1,"6.31 µM [rising, single point]",–
CC(C)(C)NC(=O)CSc1nc(N)c(NC(=O)c2ccccc2F)c(=O)[nH]1,"0.0794 µM [rising, partial curve, poor fit]",–
COc1ccc(NC(=S)N(CCc2c(C)[nH]c3ccc(C)cc23)Cc2ccco2)cc1,"7.08 µM [rising, partial curve]","10 µM [rising, partial curve]"
C=CCc1ccc(OCCOc2cccc3ccc(C)nc23)c(OC)c1,"0.251 µM [falling, single point]",–
COc1ccc2c(c1)oc(=O)c1ccccc12,"14.1 µM [falling, partial curve, poor fit]","39.8 µM [falling, partial curve, poor fit]"
C(=N\Nc1nc(-c2ccccc2)cs1)/c1cccs1,–,"3.16 µM [rising, single point]"
CC(C)(C)NC(=O)c1cnn2c(C(F)F)cc(-c3ccccc3)nc12,"3.55 µM [rising, single point]","2.82 µM [rising, single point]"
S=C(NCc1ccco1)N/N=C/c1ccc(Cl)cc1,"11.2 µM [rising, single point]","17.8 µM [rising, single point]"
N#Cc1ccccc1NC(=O)C(=O)NCC(c1ccc2c(c1)OCO2)N1CCN(c2ccccc2)CC1 (stereo unspecified),"0.891 µM [falling, full curve, poor fit]","0.708 µM [falling, partial curve, poor fit]"
Cc1cc(Cl)ccc1OC(C)C(=O)N1CCCN(C(=O)C(C)Oc2ccc(Cl)cc2C)CC1 (stereo unspecified),"8.91 µM [rising, partial curve]","11.2 µM [rising, partial curve]"
O=C(Nc1ccc2nc(SCC(=O)N3CCCc4ccccc43)sc2c1)c1ccc(F)cc1,"4.47 µM [falling, full curve]","11.2 µM [falling, partial curve, poor fit]"
COC(=O)c1cc(NCc2ccccc2F)ccc1N1CCOCC1,"12.6 µM [rising, single point]",–
Cc1ccc(CNc2ncnc3c2cnn3-c2ccccc2)cc1,–,"10 µM [falling, single point]"

SMILES,AC50 [1],AC50 [2]
COc1ccc2nc(/C=N/NC(=O)[C@H](CCSC)NC(=O)OC(C)(C)C)ccc2c1,–,"12.6 µM [rising, single point]"
O=C(c1nn2c(C(F)(F)F)cc(-c3ccc(F)cc3)nc2c1Cl)N1CCOCC1,"20 µM [rising, single point]",–
CCCC1(C(=O)OCC)NC(c2ccc(N(C)C)cc2)C2C(=O)N(c3ccc(OCC)cc3)C(=O)C21 (stereo unspecified),–,"4.47 µM [rising, partial curve, poor fit]"
CCn1c2ccc(F)cc2c2nnc(SCCN3CCCCC3)nc21,"15.8 µM [falling, single point]","1.26 µM [falling, partial curve, poor fit]"
Cc1cc(-c2nnc3n2N=C(c2ccc(-c4ccccc4)cc2)CS3)n[nH]1,"11.2 µM [rising, single point]","12.6 µM [rising, single point]"
Cc1cccc(Nc2nnc(SCC(=O)Nc3ccccc3[N+](=O)[O-])s2)c1,–,"11.2 µM [rising, partial curve, poor fit]"
C=CCCC(=O)Nc1nc(C)c(-c2csc(Nc3ccc(Cl)cc3)n2)s1,"0.282 µM [falling, single point]","0.0316 µM [falling, partial curve]"
Cc1ccc(CNC(=O)CSc2c3c(nc4ccc(Cl)cc24)CCCC3)o1,"15.8 µM [falling, single point]","22.4 µM [falling, single point]"
CC(=O)Nc1ccc(S(=O)(=O)NCC(=O)OC(C)c2ccccc2Cl)cc1 (stereo unspecified),"11.2 µM [rising, single point]","28.2 µM [rising, single point]"
CN(Cc1cc(Br)cc(Br)c1N)C1CCCCC1,"35.5 µM [rising, single point]","31.6 µM [rising, single point]"
CCCC(c1nnnn1Cc1cccs1)N1CCN(c2ccc(OC)cc2)CC1 (stereo unspecified),–,"11.2 µM [rising, single point]"
N#CC1=C(N)OC2=C(CC/C2=C\c2ccccc2)C1c1ccccc1 (stereo unspecified),"22.4 µM [falling, single point]","25.1 µM [falling, single point]"
Cc1ccc(C2=NC3(CCCCC3)N=C2SCC(=O)Nc2ccc3c(c2)OCCO3)cc1,–,"22.4 µM [rising, single point]"
O=C(CCc1ccc(S(=O)(=O)N2CCOCC2)cc1)OCc1nc2ccccc2s1,"35.5 µM [rising, single point]","0.282 µM [rising, partial curve]"
Cc1ccc(CNc2nc(-c3cccs3)nc3ccccc23)cc1,"12.6 µM [rising, partial curve]","20 µM [rising, partial curve]"
CCC(=O)Oc1cccc(C(=O)Nc2ccc(-c3nnc(-c4ccco4)o3)cc2)c1,–,"22.4 µM [rising, partial curve]"
CCOC(=O)N1CCc2c(sc3c2c(=O)n(-c2ccc(Cl)cc2)c(=O)n3CC(=O)Nc2ccccc2)C1,–,"35.5 µM [falling, partial curve, poor fit]"

# Structural class: the compounds so far with a cyano group.
SMILES,AC50 [1],AC50 [2]
N#Cc1ccccc1NC(=O)C(=O)NCC(c1ccc2c(c1)OCO2)N1CCN(c2ccccc2)CC1 (stereo unspecified),"0.891 µM [falling, full curve, poor fit]","0.708 µM [falling, partial curve, poor fit]"
N#CC1=C(N)OC2=C(CC/C2=C\c2ccccc2)C1c1ccccc1 (stereo unspecified),"22.4 µM [falling, single point]","25.1 µM [falling, single point]"
